Test results reported in patent US12540309B2, “Methods of isolating cells from placental tissue” (Meharry Medical College, priority 2019, dated 2026).
For at least one compound, name, drawing or mass did not settle the structure.

Test system: primary trophoblasts
Assay: hCG expression in primary trophoblasts after forskolin treatment (IHC staining)
Type: cell-based, human
Conditions: 1×10^4 cells/well, 25 μM forskolin for 72 hours, compared with mock treated cells (media only)

## C=C[C@@]1(C)CC(=O)[C@]2(O)[C@@]3(C)[C@@H](O)CCC(C)(C)[C@@H]3[C@H](O)[C@H](OC(C)=O)[C@@]2(C)O1 [forskolin]
  levels of hCG as determined by IHC staining: higher levels of hCG
